Reference: the supplement of paper PMC11732987, “Enantioselective OTUD7B fragment discovery through chemoproteomics screening and high-throughput optimisation” (Communications Chemistry, 2025)
This is one part of the list. The data scatter; read single values as rough.

Amino acid sequences for entries named in this document (tags omitted). A change or cut given only in a name is not applied to a line headed by its entry.
UniProt P53041: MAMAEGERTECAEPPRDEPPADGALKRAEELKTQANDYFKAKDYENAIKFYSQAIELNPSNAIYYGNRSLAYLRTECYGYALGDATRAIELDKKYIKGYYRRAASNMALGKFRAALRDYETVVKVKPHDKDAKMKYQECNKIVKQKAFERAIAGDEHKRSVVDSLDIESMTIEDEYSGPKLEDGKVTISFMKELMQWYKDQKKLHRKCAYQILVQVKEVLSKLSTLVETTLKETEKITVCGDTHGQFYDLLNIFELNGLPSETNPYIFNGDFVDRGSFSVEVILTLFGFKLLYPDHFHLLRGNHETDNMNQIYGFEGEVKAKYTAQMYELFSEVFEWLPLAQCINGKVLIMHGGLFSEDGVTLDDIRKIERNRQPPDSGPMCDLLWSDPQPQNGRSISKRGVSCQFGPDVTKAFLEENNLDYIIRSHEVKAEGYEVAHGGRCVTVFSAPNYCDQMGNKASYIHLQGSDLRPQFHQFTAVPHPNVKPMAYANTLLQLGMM
UniProt O94906: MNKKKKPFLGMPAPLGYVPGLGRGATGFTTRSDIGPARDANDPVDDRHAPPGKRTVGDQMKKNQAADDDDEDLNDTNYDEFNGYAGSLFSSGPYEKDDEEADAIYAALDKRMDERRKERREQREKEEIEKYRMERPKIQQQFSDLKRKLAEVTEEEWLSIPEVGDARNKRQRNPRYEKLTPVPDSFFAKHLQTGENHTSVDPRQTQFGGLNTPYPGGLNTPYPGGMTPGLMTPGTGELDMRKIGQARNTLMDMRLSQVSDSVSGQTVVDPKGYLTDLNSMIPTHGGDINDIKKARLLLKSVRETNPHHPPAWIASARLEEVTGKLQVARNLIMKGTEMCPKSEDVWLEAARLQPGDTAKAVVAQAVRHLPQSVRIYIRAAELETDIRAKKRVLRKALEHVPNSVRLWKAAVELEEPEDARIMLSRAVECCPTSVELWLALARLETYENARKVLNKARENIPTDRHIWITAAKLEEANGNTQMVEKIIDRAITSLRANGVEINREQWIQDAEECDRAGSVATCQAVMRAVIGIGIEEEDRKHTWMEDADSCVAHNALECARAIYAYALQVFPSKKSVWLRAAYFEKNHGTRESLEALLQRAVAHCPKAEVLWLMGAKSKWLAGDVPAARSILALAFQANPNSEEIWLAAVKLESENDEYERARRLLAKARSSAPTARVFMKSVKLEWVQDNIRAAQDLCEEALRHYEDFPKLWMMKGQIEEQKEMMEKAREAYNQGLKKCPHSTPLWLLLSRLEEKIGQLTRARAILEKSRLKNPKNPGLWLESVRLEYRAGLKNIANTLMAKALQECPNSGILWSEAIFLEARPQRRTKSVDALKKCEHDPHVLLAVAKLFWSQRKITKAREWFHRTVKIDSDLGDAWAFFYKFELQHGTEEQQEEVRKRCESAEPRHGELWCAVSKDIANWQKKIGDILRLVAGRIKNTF
UniProt Q9UPN7: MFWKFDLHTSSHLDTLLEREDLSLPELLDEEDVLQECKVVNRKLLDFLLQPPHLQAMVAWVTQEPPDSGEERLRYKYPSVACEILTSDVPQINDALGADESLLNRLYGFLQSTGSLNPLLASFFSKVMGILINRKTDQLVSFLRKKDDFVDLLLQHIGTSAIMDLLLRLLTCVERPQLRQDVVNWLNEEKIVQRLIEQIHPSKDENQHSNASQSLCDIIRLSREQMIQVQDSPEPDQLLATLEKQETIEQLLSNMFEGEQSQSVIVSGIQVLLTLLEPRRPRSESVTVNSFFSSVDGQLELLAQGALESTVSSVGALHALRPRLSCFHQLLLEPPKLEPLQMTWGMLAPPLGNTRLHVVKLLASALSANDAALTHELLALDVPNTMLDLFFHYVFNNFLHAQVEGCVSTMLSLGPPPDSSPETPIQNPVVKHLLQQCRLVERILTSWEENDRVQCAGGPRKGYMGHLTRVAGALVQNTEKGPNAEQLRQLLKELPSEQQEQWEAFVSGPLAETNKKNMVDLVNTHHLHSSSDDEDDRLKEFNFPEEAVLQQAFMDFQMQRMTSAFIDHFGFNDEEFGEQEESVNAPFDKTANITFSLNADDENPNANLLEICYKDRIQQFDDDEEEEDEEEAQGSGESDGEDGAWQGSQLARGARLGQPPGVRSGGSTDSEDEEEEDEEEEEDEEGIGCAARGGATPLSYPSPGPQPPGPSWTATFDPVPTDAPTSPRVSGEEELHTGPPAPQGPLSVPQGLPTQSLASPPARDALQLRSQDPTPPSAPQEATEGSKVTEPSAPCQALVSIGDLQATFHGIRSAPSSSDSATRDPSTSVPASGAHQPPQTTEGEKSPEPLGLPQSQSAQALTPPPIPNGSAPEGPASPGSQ
UniProt O75569: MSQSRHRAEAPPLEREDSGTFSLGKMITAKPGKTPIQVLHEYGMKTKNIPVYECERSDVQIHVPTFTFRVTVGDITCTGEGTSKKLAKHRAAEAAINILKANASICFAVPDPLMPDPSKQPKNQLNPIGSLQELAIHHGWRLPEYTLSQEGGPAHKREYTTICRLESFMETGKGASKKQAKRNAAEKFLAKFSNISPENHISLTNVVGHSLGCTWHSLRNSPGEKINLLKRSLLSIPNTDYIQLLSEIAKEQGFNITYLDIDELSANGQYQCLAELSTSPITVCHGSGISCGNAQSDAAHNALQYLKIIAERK
UniProt Q8TF05: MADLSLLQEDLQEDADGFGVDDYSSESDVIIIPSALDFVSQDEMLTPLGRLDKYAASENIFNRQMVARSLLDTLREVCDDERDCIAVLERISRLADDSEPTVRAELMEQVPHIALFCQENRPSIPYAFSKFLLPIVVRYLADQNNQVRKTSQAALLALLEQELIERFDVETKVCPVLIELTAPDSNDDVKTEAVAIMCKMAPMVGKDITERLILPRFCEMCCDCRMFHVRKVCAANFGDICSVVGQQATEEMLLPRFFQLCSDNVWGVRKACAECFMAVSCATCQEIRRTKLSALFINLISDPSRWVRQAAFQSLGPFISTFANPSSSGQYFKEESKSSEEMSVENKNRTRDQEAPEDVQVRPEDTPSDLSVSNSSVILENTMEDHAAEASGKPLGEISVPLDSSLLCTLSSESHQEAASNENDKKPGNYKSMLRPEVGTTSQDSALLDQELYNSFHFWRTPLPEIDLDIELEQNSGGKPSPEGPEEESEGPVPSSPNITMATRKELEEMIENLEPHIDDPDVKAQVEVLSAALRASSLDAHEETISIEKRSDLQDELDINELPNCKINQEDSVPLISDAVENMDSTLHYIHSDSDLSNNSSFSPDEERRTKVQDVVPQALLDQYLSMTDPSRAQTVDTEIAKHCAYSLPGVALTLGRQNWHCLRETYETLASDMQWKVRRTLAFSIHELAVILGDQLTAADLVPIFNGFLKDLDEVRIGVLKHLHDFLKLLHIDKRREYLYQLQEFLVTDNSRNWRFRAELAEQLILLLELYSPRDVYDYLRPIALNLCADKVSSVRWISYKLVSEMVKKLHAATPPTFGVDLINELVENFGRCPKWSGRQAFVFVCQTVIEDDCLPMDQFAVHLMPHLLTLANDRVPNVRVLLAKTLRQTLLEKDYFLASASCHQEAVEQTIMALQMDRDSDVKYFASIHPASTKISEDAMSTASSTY
UniProt Q8WUA2: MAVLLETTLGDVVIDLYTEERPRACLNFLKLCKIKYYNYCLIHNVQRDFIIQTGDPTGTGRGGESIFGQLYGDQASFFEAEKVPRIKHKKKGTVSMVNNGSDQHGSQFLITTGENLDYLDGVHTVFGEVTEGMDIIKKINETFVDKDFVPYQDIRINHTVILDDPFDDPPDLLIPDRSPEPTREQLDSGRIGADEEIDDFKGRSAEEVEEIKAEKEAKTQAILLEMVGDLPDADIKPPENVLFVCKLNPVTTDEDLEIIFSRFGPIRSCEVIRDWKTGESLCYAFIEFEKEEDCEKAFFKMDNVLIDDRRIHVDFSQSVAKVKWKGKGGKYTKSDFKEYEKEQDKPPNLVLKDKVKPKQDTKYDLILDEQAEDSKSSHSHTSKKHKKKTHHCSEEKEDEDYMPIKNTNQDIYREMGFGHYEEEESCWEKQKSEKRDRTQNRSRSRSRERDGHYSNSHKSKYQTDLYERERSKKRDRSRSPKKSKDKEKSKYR
UniProt O14802: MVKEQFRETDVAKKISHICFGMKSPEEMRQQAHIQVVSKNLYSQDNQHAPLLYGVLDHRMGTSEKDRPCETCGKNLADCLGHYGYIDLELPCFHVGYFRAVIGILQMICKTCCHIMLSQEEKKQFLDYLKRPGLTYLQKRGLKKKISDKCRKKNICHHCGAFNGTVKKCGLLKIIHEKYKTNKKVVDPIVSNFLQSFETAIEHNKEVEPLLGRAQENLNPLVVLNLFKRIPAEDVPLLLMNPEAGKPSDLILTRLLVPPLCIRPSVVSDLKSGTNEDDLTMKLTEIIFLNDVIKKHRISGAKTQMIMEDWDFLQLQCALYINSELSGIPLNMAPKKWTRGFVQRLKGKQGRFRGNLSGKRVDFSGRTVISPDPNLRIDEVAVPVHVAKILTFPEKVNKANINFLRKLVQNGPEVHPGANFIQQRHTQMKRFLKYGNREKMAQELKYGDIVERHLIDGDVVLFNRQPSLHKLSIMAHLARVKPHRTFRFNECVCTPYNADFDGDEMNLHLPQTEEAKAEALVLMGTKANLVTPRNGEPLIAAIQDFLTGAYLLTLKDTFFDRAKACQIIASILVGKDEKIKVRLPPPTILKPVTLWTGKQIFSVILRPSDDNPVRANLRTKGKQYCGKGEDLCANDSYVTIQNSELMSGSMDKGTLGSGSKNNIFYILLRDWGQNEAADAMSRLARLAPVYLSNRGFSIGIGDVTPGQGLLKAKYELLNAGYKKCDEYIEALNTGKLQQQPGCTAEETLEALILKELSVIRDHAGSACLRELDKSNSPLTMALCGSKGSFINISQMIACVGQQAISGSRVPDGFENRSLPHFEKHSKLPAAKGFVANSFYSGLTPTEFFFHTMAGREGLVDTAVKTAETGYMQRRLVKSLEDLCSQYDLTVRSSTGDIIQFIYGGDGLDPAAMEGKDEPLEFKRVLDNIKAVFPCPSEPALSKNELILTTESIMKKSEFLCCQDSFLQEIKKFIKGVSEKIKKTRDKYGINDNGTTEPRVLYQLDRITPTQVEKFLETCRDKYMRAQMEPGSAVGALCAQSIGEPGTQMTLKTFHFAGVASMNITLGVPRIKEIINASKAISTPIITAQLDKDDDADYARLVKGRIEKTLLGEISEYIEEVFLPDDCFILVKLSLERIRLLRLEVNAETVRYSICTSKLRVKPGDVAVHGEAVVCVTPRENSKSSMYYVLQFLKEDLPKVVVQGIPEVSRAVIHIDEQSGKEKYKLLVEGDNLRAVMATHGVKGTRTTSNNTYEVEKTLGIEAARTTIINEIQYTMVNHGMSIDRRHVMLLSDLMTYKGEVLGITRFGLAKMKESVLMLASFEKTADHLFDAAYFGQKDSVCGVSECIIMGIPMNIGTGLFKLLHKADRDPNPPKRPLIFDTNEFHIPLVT
UniProt Q6P2P2: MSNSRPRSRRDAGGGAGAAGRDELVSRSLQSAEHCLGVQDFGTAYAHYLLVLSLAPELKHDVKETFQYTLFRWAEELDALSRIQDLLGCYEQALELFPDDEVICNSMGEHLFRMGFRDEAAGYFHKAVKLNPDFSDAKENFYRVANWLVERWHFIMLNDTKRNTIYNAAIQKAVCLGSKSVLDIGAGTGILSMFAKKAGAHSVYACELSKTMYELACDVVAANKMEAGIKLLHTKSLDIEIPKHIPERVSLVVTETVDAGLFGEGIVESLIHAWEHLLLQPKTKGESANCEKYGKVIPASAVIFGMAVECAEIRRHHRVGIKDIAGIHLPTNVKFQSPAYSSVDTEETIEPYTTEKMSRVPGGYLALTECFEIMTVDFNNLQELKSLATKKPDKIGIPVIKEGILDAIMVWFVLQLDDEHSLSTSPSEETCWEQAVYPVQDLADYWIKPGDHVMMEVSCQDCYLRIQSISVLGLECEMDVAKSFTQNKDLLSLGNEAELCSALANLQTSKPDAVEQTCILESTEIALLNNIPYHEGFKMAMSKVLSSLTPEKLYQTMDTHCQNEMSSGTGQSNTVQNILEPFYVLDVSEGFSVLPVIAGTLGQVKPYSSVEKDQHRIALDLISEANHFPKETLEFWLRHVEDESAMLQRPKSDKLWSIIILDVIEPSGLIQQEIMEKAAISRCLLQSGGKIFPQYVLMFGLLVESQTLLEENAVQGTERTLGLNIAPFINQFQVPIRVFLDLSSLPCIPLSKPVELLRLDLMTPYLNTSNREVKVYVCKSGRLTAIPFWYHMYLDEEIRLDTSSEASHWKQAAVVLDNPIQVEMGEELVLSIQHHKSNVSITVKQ

Each target was assayed with ClCC(=O)N[C@@H]1CCCc2ccccc12 (assay: log2 mean competition ratio of IA-DTB cysteine labelling (DMSO/compound) (log2 ratio); higher = stronger cysteine engagement by compound). Conditions: 50 µM; treatment time: 4 h; cell line lysate: HEK293T.
Method: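 IA-DTB competitive cysteine chemoproteomics in HEK293T RIPA lysate. Lysates were treated with compound 29 or 30 at 50 or 200 µM for 4 h, then IA-DTB (500 µM, 1 h), trypsin-digested, NeutrAvidin-enriched and analysed by diaPASEF. Competition ratio = intensity DMSO / intensity compound (n=4 treated, n=64 DMSO); binding: mean log2 CR ≥ 1 and p ≤ 0.05 plus QC filters. Target is the cysteine site.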

| Target | log2 mean competition ratio |
| --- | --- |
| PPP5C C11 (UniProt P53041) | 0.0628 |
| POLR2B C945 (UniProt P30876) | 0.262 |
| PRKD1 C726 (UniProt Q15139) | 0.692 |
| PRPF6 C698 (UniProt O94906) | -0.0131 |
| PPP5C C139 (UniProt P53041) | 0.0689 |
| PPP1CC;PPP1CA C127;(C127) | 0.121 |
| PPP6R1 C172 (UniProt Q9UPN7) | -0.294 |
| POLR3B C815 (UniProt Q9NW08) | 0.186 |
| PRKRA C77 (UniProt O75569) | -0.352 |
| PRKRA C54 (UniProt O75569) | 0.215 |
| PPP4R1 C566 (UniProt Q8TF05) | -0.188 |
| PPIL4 C426 (UniProt Q8WUA2) | -0.0576 |
| PRKAR1A C362 (UniProt P10644) | 0.194 |
| PRPS1 C165 | -0.0896 |
| POLR3A C742 (UniProt O14802) | 0.2 |
| PRKD2 C74 | -0.0951 |
| POLR2A C1287 | -0.156 |
| PPP6R2 C49 (UniProt O75170) | 0.0807 |
| PRMT9 C290 (UniProt Q6P2P2) | -0.243 |
| PRKCG C502 (UniProt P05129) | -0.0411 |

Same assay, conditions: 200 µM; treatment time: 4 h; cell line lysate: HEK293T

| Target | log2 mean competition ratio |
| --- | --- |
| PPP5C C11 (UniProt P53041) | 0.0328 |
| POLR2B C945 (UniProt P30876) | -0.00172 |
| PRKD1 C726 (UniProt Q15139) | 0.32 |
| PRPF6 C698 (UniProt O94906) | -0.219 |
| PPP5C C139 (UniProt P53041) | 0.0302 |
| PPP1CC;PPP1CA C127;(C127) | -0.11 |
| PPP6R1 C172 (UniProt Q9UPN7) | 0.108 |
| POLR3B C815 (UniProt Q9NW08) | 0.0525 |
| PRKRA C77 (UniProt O75569) | 0.0594 |
| PRKRA C54 (UniProt O75569) | -0.121 |
| PPP4R1 C566 (UniProt Q8TF05) | 0.613 |
| PPIL4 C426 (UniProt Q8WUA2) | -0.0479 |
| PRKAR1A C362 (UniProt P10644) | -0.0122 |
| PRPS1 C165 | -0.284 |
| POLR3A C742 (UniProt O14802) | 0.0847 |
| PRKD2 C74 | 0.175 |
| POLR2A C1287 | 0.051 |
| PPP6R2 C49 (UniProt O75170) | -0.222 |
| PRMT9 C290 (UniProt Q6P2P2) | -0.091 |
| PRKCG C502 (UniProt P05129) | -0.0451 |
